Laboratory results reported in PMC10989989, “The archaeal KEOPS complex possesses a functional Gon7 homolog and has an essential function independent of the cellular t^6A modification level” (mLife, 2023).
Construct, isoform or probe ends are uncertain for at least one entry. Weaker means in comparison with the reference protein, sequence or condition of that experiment.

Tested on: TkoCgi121 I75E (Thermococcus kodakarensis)
Assay: EMSA
Conditions: binding only at 20 uM, likely nonspecific, 50 mM Tris-HCl pH 8.0, 100 uM ATP, 37 C 30 min (45 min for the 45 nt ssDNA), 10 nM FAM probe (1 nM in Fig 6B), 8% native PAGE in 0.5x TBE at 4 C, recombinant protein, protein details: 6xHis, label: 5'-FAM

| Sequence | binding result (single-stranded DNA) | binding result |
| --- | --- | --- |
| CAGTATGCTGCGTGAGGAATGATCCCATGACGTAACCACAGTGCC [FAM-ssDNA 45 nt with two CCA motifs] | binds more weakly |  |
| CAGTATGCTGCGTGAGGAATGATCCCATGACGTAACCACAGTGCC (double strand) [FAM-dsDNA 45 bp with two CCA motifs] |  | binds more weakly |
